Experimental data from PubChem BioAssay AID248 (DTP/NCI, 2004).
The list does not hold the whole screen: it is rich in T/C values a quarter to a half above the control, in often repeated tests (any T/C) and in doses without a T/C. Further doses and runs are listed elsewhere. T/C is the treated group as % of the vehicle group. Some entries give survivors of the animals treated and no T/C: the source holds a T/C of zero for them, seemingly a mark for toxic or unscored doses. Some survivor counts are full or nearly so, which does not show that the dose was tolerated: the source hardly ever lists a survival T/C far under the control, and the zero likely stands for such cases as well. Survivors were counted at the toxicity check, usually on the fifth day, unless a day is given; later deaths do not show. Schedules are NCI's codes, read here as Q, the interval in days (D) or hours (H), X, the number of doses. Where survival is the endpoint, this PubChem deposit counts one and a half times the control or more as active, and values a quarter to a half above the control carry no call in these data; other NCI protocols may use other cut-offs. Some T/C values are followed by the survivors on the day toxicity was checked, most often the fifth; without a count, all were alive then.

Test system: L1210 leukemia ip in BDF1 mice, survival T/C
Assay: NCI In Vivo Anticancer Drug Screen. Data for tumor model L1210 Leukemia (intraperitoneal) in B6D2F1 (BDF1) mice
Conditions: higher T/C = longer survival
[1] = T/C endpoint: mean survival time, dose: 100.0 mg/kg/injection, schedule: Q01DX001 (ip), vehicle: saline with Tween-80
[2] = T/C endpoint: mean survival time, dose: 400.0 mg/kg/injection, schedule: Q01DX009 (ip), vehicle: saline with Tween-80
[3] = T/C endpoint: mean survival time, dose: 400.0 mg/kg/injection, schedule: Q04DX003 (ip), vehicle: Klucel (hydroxypropylcellulose) (HPC)
[4] = T/C endpoint: mean survival time, dose: 400.0 mg/kg/injection, schedule: Q01DX009 (ip), vehicle: Klucel (hydroxypropylcellulose) (HPC)
[5] = T/C endpoint: mean survival time, dose: 200.0 mg/kg/injection, schedule: Q04DX003 (ip), vehicle: carboxymethylcellulose (CMC)

CCC1([N+](=O)[O-])COP(=O)(N2CC2)OC1 (stereo not drawn)
survivor count (T/C endpoint: mean survival time, dose: 400.0 mg/kg/injection, schedule: Q01DX001 (ip), vehicle: carboxymethylcellulose (CMC)): 1 of 4

CC1C(C(=O)c2ccccc2)C(c2ccccc2)OP1(c1ccccc1)(c1ccccc1)c1ccccc1 (stereo not drawn)
survivor count [1]: 0 of 6
survivor count (T/C endpoint: mean survival time, dose: 200.0 mg/kg/injection, schedule: Q01DX001 (ip), vehicle: saline with Tween-80): 0 of 6
survivor count (T/C endpoint: mean survival time, dose: 400.0 mg/kg/injection, schedule: Q01DX001 (ip), vehicle: saline with Tween-80): 0 of 6

CC(=O)Cc1cc(C)nc(/N=C(\N)Nc2ccccc2)n1
survivor count (T/C endpoint: mean survival time, dose: 400.0 mg/kg/injection, schedule: Q04DX002 (ip), vehicle: Klucel (hydroxypropylcellulose) (HPC)): 1 of 3

ClCC(Br)CBr (stereo not drawn)
survivor count (T/C endpoint: mean survival time, dose: 300.0 mg/kg/injection, schedule: Q01DX001 (ip), vehicle: saline): 1 of 6

CN1CCN(Cc2nc3cccc4c3c([n+]2[O-])-c2ccccc2-4)CC1
survivor count [2]: 0 of 10

Cc1cc([N+](=O)[O-])ccn1
survivor count [2]: 0 of 6

CC(O)C(C)Cl (stereo not drawn)
survivor count (T/C endpoint: mean survival time, dose: 200.0 mg/kg/injection, schedule: Q01DX009 (ip), vehicle: saline): 3 of 3

OC(CN1CCCC1)c1cc2cc(Br)ccc2s1 (stereo not drawn)
survivor count (T/C endpoint: mean survival time, dose: 200.0 mg/kg/injection, schedule: Q01DX001 (ip), vehicle: saline): 2 of 6
survivor count (T/C endpoint: mean survival time, dose: 400.0 mg/kg/injection, schedule: Q01DX001 (ip), vehicle: saline): 0 of 6

C/C=C/C=C/COC(=O)C(C)(C)C
T/C (T/C endpoint: mean survival time, dose: 200.0 mg/kg/injection, schedule: Q04DX002 (ip), vehicle: saline): 125 % of control

CCCCCCCCCCCCCCCCCOc1ccc(I)cc1
survivor count [3]: 6 of 6

Cc1ccc(S(=O)(=O)OCC2CCC(COS(=O)(=O)c3ccc(C)cc3)O2)cc1 (stereo not drawn)
survivor count [3]: 3 of 3

CC1(C)N=C(N)N=C(N)N1CCc1ccccc1
survivor count [1]: 0 of 6

CC1(c2ccc3ccccc3c2)OCC2(CCC2)CO1
survivor count (T/C endpoint: mean survival time, dose: 200.0 mg/kg/injection, schedule: Q04DX002 (ip), vehicle: Klucel (hydroxypropylcellulose) (HPC)): 3 of 3

O=C(Cc1ccccc1)CC(O)(C(F)(F)F)C(F)(F)F
survivor count [2]: 5 of 6

CCOC(=O)c1[nH]c(C)nc1/N=N/N(C)C
T/C (T/C endpoint: median survival time, dose: 50.0 mg/kg/injection, schedule: Q01DX009 (ip), vehicle: Klucel (hydroxypropylcellulose) (HPC)): 127 % of control
T/C (T/C endpoint: median survival time, dose: 100.0 mg/kg/injection, schedule: Q01DX009 (ip), vehicle: Klucel (hydroxypropylcellulose) (HPC)): 133 % of control
T/C (T/C endpoint: median survival time, dose: 200.0 mg/kg/injection, schedule: Q01DX009 (ip), vehicle: Klucel (hydroxypropylcellulose) (HPC)): 144 % of control [5 of 6 alive]

O=C(O)/C=C/c1ccncc1
survivor count (T/C endpoint: mean survival time, dose: 400.0 mg/kg/injection, schedule: Q04DX003 (ip), vehicle: saline): 6 of 6

O=C1C=CC(=O)N1c1ccc([N+](=O)[O-])cc1[N+](=O)[O-]
survivor count (T/C endpoint: mean survival time, dose: 200.0 mg/kg/injection, schedule: Q01DX009 (ip), vehicle: Klucel (hydroxypropylcellulose) (HPC)): 0 of 6
survivor count [4]: 0 of 6

CCO/C(C)=C(/C#N)c1ccc(Cl)cc1
survivor count (T/C endpoint: mean survival time, dose: 100.0 mg/kg/injection, schedule: Q01DX009 (ip), vehicle: gum acacia): 0 of 6
survivor count (T/C endpoint: mean survival time, dose: 200.0 mg/kg/injection, schedule: Q01DX009 (ip), vehicle: gum acacia): 0 of 6
survivor count (T/C endpoint: mean survival time, dose: 400.0 mg/kg/injection, schedule: Q01DX009 (ip), vehicle: gum acacia): 0 of 6

COC(=O)C#CBr
survivor count (T/C endpoint: mean survival time, dose: 12.5 mg/kg/injection, schedule: Q01DX009 (ip), vehicle: other): 0 of 6

c1ccc(CN2CCN(CC3CC3)CC2)cc1
survivor count (T/C endpoint: mean survival time, dose: 100.0 mg/kg/injection, schedule: Q04DX003 (ip), vehicle: carboxymethylcellulose (CMC)): 2 of 6
survivor count [5]: 0 of 6
survivor count (T/C endpoint: mean survival time, dose: 400.0 mg/kg/injection, schedule: Q04DX003 (ip), vehicle: carboxymethylcellulose (CMC)): 0 of 6

CN(C)C(=O)Oc1c(Cl)cccc1Cl
survivor count [4]: 1 of 6

CCC(C)SC1=NC(N)=NC2=NC=NC21 (stereo not drawn)
T/C [5]: 140 % of control

CCCCC(=O)N1CCCCCC1
survivor count (T/C endpoint: mean survival time, dose: 400.0 mg/kg/injection, schedule: Q04DX002 (ip), vehicle: saline with Tween-80): 1 of 3
